Laboratory results from the supplement of paper PMC10849652.
The other results are listed elsewhere or left out.

Chains of the proteins cited; added tags and fusions are not shown. Lines headed by an entry give the natural chain unless they say otherwise; changes in a name come on top.
UniProt Q9Y5V0: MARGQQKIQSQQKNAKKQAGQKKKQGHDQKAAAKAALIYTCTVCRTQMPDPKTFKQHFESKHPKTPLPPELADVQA
UniProt Q96NC0: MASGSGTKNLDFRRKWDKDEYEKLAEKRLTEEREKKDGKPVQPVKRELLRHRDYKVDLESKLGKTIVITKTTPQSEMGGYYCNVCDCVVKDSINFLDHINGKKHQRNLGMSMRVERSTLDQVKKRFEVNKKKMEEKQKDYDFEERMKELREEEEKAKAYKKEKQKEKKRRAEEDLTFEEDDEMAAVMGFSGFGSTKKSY
UniProt Q969S3: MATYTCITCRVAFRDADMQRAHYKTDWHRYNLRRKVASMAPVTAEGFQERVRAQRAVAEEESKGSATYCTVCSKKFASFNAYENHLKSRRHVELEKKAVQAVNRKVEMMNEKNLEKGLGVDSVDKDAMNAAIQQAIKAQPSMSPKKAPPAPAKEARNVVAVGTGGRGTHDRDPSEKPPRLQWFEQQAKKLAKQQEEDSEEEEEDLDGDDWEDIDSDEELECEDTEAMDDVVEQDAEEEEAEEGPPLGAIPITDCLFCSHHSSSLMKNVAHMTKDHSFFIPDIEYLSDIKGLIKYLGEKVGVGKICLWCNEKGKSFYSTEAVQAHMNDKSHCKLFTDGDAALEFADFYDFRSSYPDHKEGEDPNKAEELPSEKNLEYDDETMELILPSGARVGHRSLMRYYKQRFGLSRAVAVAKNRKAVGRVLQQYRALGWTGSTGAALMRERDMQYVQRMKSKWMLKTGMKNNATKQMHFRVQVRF
UniProt Q9UID6: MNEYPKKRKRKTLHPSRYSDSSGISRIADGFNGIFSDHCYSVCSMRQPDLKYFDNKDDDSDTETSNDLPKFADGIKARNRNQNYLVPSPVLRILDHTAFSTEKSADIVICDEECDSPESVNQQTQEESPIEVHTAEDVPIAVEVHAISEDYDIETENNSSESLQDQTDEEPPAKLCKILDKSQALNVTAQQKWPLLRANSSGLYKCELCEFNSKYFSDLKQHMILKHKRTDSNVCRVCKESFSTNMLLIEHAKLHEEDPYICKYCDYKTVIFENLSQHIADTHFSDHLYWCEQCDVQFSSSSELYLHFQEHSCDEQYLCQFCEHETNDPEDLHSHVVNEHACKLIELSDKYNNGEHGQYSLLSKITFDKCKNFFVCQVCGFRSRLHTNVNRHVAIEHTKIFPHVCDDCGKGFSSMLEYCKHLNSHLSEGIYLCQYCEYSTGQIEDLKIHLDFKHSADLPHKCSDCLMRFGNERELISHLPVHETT
UniProt O43149: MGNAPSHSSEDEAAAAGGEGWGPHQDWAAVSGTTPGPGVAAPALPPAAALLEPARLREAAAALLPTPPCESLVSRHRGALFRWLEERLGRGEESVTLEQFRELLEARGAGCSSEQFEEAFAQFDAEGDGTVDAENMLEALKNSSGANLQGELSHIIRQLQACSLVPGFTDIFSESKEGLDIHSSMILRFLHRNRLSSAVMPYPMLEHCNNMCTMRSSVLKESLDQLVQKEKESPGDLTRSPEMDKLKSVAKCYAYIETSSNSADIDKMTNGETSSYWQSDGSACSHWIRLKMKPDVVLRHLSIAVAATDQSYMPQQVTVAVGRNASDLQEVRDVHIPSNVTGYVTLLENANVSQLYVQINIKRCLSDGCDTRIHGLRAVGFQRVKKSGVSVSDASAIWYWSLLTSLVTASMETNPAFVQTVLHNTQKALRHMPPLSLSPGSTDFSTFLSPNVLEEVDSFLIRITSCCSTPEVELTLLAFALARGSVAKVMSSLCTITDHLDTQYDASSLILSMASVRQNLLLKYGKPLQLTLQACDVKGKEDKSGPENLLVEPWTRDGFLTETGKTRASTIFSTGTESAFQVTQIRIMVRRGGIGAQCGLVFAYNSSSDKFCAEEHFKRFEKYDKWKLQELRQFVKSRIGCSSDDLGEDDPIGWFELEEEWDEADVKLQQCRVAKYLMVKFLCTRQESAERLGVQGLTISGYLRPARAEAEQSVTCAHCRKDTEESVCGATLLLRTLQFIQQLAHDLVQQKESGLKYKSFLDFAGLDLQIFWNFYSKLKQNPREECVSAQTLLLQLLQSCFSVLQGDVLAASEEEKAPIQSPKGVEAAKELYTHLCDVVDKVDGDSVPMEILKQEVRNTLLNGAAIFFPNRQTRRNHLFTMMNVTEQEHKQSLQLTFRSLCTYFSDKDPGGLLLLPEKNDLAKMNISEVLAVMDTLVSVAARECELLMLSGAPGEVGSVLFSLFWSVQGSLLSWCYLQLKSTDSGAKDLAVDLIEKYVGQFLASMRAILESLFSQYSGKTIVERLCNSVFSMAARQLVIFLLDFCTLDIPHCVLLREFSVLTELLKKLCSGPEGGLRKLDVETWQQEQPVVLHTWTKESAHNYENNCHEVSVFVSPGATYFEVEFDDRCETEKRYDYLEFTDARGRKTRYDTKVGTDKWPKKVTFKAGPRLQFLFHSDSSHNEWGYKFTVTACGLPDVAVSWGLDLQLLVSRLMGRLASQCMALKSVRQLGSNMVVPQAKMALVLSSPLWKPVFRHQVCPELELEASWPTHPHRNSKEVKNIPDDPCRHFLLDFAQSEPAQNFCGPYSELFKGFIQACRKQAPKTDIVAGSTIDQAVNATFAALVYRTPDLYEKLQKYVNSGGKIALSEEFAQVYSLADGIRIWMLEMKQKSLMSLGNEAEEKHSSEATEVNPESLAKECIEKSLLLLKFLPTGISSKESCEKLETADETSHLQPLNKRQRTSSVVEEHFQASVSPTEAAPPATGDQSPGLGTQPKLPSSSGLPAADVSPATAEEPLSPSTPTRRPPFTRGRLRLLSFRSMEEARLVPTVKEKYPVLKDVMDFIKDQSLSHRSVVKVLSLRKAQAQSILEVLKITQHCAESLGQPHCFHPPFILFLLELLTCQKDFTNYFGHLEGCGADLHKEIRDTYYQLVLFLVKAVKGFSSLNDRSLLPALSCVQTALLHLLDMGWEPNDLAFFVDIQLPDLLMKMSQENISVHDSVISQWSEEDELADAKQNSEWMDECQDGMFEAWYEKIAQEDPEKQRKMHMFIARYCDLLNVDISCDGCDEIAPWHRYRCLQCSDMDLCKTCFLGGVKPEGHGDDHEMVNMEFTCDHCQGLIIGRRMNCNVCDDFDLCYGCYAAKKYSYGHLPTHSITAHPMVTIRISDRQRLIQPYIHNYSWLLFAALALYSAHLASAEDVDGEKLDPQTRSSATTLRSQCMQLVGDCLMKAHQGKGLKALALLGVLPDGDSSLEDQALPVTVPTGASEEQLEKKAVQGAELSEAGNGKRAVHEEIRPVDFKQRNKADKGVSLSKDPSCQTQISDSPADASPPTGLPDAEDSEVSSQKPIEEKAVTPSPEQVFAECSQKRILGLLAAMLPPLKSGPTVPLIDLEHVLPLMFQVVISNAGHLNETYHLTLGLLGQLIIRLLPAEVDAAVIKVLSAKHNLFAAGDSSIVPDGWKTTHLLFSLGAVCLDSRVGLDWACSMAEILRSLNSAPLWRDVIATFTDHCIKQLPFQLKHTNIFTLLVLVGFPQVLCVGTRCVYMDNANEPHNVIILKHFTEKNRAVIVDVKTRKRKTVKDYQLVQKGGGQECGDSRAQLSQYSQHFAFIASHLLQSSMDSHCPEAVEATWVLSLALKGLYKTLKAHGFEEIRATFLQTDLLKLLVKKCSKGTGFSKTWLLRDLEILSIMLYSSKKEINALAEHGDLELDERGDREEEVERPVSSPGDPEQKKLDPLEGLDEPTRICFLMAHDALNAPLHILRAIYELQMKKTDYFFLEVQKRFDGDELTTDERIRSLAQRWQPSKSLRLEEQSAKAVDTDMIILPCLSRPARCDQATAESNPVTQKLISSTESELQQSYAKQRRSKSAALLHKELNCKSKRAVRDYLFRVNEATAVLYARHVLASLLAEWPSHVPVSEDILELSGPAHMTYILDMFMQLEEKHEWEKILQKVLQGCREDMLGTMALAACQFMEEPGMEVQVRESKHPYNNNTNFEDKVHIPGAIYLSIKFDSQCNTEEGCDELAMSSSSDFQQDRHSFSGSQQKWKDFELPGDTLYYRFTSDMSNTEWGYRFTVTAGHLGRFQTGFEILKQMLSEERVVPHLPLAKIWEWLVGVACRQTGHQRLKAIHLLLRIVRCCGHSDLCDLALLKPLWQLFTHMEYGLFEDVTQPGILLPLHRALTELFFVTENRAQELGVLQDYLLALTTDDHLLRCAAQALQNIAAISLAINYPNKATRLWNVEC
UniProt Q9ULJ6: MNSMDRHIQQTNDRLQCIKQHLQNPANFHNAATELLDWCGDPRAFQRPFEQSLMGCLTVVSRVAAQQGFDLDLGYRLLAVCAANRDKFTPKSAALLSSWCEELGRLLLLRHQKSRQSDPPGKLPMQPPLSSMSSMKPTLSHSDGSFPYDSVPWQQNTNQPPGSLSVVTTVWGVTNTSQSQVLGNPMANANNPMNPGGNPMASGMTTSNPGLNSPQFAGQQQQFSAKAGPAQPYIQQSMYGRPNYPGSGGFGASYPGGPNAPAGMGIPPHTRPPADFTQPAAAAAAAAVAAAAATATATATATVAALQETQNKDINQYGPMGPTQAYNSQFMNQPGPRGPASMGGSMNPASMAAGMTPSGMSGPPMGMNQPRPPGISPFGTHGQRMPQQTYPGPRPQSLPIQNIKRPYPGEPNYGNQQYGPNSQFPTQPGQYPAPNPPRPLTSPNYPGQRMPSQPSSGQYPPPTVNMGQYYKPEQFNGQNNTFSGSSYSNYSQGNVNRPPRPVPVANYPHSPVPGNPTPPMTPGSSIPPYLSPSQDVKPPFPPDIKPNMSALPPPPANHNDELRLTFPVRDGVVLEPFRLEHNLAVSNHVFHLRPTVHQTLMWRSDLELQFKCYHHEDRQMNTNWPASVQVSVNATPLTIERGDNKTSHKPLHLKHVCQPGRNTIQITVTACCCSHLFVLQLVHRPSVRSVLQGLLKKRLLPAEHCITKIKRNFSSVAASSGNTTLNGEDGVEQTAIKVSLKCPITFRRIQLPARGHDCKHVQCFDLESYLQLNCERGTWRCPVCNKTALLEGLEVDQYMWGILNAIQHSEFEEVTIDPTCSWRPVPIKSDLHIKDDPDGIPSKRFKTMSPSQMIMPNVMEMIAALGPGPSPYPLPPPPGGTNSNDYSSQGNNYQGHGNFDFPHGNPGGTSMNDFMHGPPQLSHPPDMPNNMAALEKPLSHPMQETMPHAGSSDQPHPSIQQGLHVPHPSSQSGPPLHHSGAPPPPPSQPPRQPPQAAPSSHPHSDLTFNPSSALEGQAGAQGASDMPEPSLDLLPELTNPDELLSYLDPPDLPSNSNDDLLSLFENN
UniProt Q8NF64: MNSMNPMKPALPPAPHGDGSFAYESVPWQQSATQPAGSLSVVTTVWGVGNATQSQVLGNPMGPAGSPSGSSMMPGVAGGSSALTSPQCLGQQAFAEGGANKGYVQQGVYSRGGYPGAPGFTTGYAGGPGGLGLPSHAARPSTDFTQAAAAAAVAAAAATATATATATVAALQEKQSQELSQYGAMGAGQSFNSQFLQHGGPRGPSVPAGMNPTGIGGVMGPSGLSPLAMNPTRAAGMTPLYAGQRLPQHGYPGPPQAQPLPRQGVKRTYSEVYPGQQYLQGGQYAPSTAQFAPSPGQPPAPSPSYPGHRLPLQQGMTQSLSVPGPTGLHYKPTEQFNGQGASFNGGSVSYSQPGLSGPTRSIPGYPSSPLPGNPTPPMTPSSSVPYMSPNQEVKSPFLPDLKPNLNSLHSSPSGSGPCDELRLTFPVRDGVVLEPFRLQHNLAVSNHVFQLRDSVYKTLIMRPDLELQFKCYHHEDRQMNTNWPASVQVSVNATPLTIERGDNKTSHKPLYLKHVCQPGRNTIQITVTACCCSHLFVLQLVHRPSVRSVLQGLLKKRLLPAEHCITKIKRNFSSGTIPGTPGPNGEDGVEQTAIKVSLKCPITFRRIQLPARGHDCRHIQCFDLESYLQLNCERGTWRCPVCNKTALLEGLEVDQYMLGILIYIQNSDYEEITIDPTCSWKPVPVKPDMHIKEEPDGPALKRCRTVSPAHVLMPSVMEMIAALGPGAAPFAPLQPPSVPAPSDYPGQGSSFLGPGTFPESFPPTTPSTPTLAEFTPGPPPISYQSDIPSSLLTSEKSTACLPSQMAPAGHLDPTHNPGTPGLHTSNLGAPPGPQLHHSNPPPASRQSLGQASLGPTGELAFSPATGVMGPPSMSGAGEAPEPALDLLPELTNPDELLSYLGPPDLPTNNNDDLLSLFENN
UniProt P17028: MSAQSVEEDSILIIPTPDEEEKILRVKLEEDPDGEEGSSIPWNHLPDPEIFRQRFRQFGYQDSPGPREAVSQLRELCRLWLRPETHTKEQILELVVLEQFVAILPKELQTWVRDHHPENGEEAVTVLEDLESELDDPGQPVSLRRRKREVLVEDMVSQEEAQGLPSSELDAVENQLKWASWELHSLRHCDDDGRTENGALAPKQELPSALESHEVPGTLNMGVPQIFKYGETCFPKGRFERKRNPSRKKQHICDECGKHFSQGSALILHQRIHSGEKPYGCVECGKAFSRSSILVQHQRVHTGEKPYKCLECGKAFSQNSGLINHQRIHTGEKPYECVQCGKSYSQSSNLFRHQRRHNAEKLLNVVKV

Compound: Cn1cc(-c2ccc3c(c2)CCN3C(=O)Cc2cccc(C(F)(F)F)c2)c2c(N)ncnc21
Assay: log2 fold change, soluble protein after heating vs DMSO (PISA); higher = thermal stabilisation; K562 lysate, 10 uM; active = over 0.2 and 3.5 SD of the protein, either way, in both replicates (recomputed)
Procedure, shortened: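 Following dounce homogenisation of K562 pellets in PBS pH 7.4 with 1 mM MgCl2, crude extract at 1 mg/mL protein was incubated for 30 min with 10 μM compound. Aliquots were then heated for 3 min over 48°C-58°C and pooled, NP-40 was added to 0.5% at 4°C, and soluble protein was recovered as the supernatant at 21,000xg for 90 min. Channel-sum-equalised TMTpro 16plex LC-MS/MS quantified this protein. Each value, from duplicates, is a log-two fold change in thermal stability relative to solvent controls.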

log2 fold change, inactive:
ZNF280A (UniProt P59817) -0.033
ZZZ3 (UniProt Q8IYH5) 0.044
ZNF143 (UniProt P52747) 0.003
ZNRD2 (UniProt O60232) -0.011
ZNF706 (UniProt Q9Y5V0) -0.05
ZMAT2 (UniProt Q96NC0) 0.033
ZNRD2 (UniProt G3V1B8) -0.019
ZNF148 (UniProt Q9UQR1) -0.045
ZWILCH (UniProt Q9H900) -0.004
ZNF638 (UniProt Q14966) 0.039
ZMYND8 isoform 19 (UniProt Q9ULU4) 0.036
ZNF622 (UniProt Q969S3) 0.037
ZNF787 (UniProt Q6DD87) -0.047
ZNF639 (UniProt Q9UID6) 0.036
hCG_1984214 (UniProt I3L0E3) 0.022
ZZEF1 (UniProt O43149) -0.006
ZKSCAN8 (UniProt Q15776) 0.026
ZMIZ1 (UniProt Q9ULJ6) -0.004
ZMIZ2 (UniProt Q8NF64) 0.264
ZNF24 (UniProt P17028) 0.012
ZNF672 (UniProt Q499Z4) 0.035
ZNF609 (UniProt O15014) -0.044
ZNF511 (UniProt Q8NB15) -0.036

Quoted at random: 2 entries already listed, in no set order.
log2 fold change, inactive:
ZNF787 (UniProt Q6DD87) -0.047
ZNRD2 (UniProt G3V1B8) -0.019
